Experimental data reported in patent US12410262B2 (Cybrexa 2, Inc., priority 2019, dated 2025).

Experiment: peptide synthesis
Conditions: conjugation step

## PEPTIDE1{A.D.D.Q.N.P.W.R.A.Y.L.D.L.L.F.P.T.D.T.L.L.L.D.L.L.W.C.G}|CHEM1{[Exa-OCO-THP-S]}$PEPTIDE1,CHEM1,27:R3-1:R1$$$V2.0
  conjugation yield: 73.6%

Strings that start with PEPTIDE1 are HELM notation: dots part the residues, brackets hold end groups and non-standard residues.
